PubChem BioAssay AID1259308, NCATS | 2017
Here is an unselected part of about 59,000 deposited reagents. About 1,510 of all reagents (2.6%) count as active. 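Calls use total luciferase alone and ignore viability, so some active siRNAs may act by altering cell number.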 Entries without a mark were called inactive. The numbers tell different reagents against one gene apart. Reagent sequences are not shown.

- Purpose: 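Knock-downs that increase output of a recombinant reporter protein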 (primary screen)
- System: human HEK293 embryonic kidney cells stably expressing firefly luciferase (HEK-CMV-Luc2-Hygro)
- Reagent: single siRNA against human genes, 0.8 pmol siRNA per well
- Time to read-out: 72 h
- Measured: 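Reporter luminescence and viable-cell signal on separate replicate plates, given as percent of non-targeting control and median/MAD z-scores, plus per-cell luciferase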
- Reading the numbers: total luciferase, z-score and total luciferase, % of control: higher = more reporter protein produced; luciferase per cell, z-score: higher = more reporter output per viable cell; viable cells, % of control: higher = more viable cells
- Rule for the call: 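An siRNA counts as active if its total luciferase robust z-score exceeds 3; genes with two or more such siRNAs out of three were retested with fresh siRNAs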
- Meaning of the calls: active = raised luciferase; inactive = no rise

Target gene	siRNA no.	total luciferase, z-score	total luciferase, % of control	luciferase per cell, z-score	viable cells, % of control
ALOXE3 (GeneID 59344)	1	-0.438	73.2	-0.884	103
ALOXE3 (GeneID 59344)	2	2	122	2.34	73.4
ALOXE3 (GeneID 59344)	3	-0.527	71.4	-1.46	117
C3orf36 (GeneID 80111)	1	0.864	99.1	1.13	82.3
C3orf36 (GeneID 80111)	2	0.442	90.7	0.56	87.4
C3orf36 (GeneID 80111)	3	-0.349	74.9	-0.393	92.9
RASA3 (GeneID 22821)	1	0.73	96.4	0.488	94.7
RASA3 (GeneID 22821)	2	0.75	96.8	0.297	100
RASA3 (GeneID 22821)	3	1.2	106	0.451	105
TMED2 (GeneID 10959)	1	-0.811	65.7	-0.79	90.5
TMED2 (GeneID 10959)	2	-0.308	75.8	0.0823	82.9
TMED2 (GeneID 10959)	3	0.0943	83.8	-0.217	99.1
PYM1 (GeneID 84305)	1	-0.467	72.6	0.451	72
PYM1 (GeneID 84305)	2	-0.895	64.1	-1	93.3
PYM1 (GeneID 84305)	3	-0.679	68.4	0.194	72.6
CDC25C (GeneID 995)	1	-2.21	37.9	-0.289	45.7
CDC25C (GeneID 995)	2	-1.62	49.6	-1.76	88.1
CDC25C (GeneID 995)	3	1.77	117	1.67	84.4

4 entries from above, showing only “total luciferase, z-score”.
RASA3 (GeneID 22821) #1 = 0.73
RASA3 (GeneID 22821) #2 = 0.75
RASA3 (GeneID 22821) #3 = 1.2
TMED2 (GeneID 10959) #1 = -0.811

The list goes on:
Target gene	siRNA no.	total luciferase, z-score	total luciferase, % of control	luciferase per cell, z-score	viable cells, % of control
NOAZFP (GeneID 27309)	1	0.262	87.1	-0.227	103
NOAZFP (GeneID 27309)	2	1.3	108	0.506	105
NOAZFP (GeneID 27309)	3	-0.776	66.4	-0.0222	74.7
ENPP3 (GeneID 5169)	1	-0.389	74.1	0.0654	81.4
ENPP3 (GeneID 5169)	2	0.872	99.2	0.433	98.9
ENPP3 (GeneID 5169)	3	0.5	91.8	0.985	79.2
GPT2 (GeneID 84706)	1	1.17	105	0.797	95.3
GPT2 (GeneID 84706)	2	1.12	104	1.02	89
GPT2 (GeneID 84706)	3	-0.52	71.5	-0.858	100
MYCLP2 (GeneID 645136)	1	2.71	136	2.71	74.4
MYCLP2 (GeneID 645136)	2	0.794	97.7	0.462	96.6
MYCLP2 (GeneID 645136)	3	1.62	114	1.67	82.3
AASS (GeneID 10157)	1	1.03	102	0.983	88.3
AASS (GeneID 10157)	2	-1.38	54.5	-1.34	86.5
AASS (GeneID 10157)	3	0.907	99.9	0.911	87.8
CTSW (GeneID 1521)	1	1.39	110	0.754	100
CTSW (GeneID 1521)	2	-0.0699	80.5	-0.495	102
CTSW (GeneID 1521)	3	-0.223	77.4	2.07	50.2
SUPT3H (GeneID 8464)	1	-0.24	77.1	-0.377	95.2
SUPT3H (GeneID 8464)	2	0.255	87	0.163	93.1
SUPT3H (GeneID 8464)	3	-0.971	62.6	-1.65	108
